The results in this text go back to article PMC11922060.

No constants are given. Whether binding was seen depends on the method and setting. Some entries that bind do so weakly or less than the wild type. For some of these results: Tags and fused reporters may be left off the sequences shown.

Assay [1] deals with Sumo-tagged Drosophila Spd-2 SP2D (Spd-2 697-998), wild type (D. melanogaster) (UniProt Q9VV79). Put plainly: SEC-MALS; Sumo-tagged SP2D at a range of protein concentrations (indicated in the figure); Superose 12 Increase 10/300 GL, 50 mM tris pH 8.0, 150 mM NaCl, 1 mM DTT; both purified. (SEC sorts molecules by how far they enter the pores of the column.)
The target in assay [2] is Sumo-tagged Drosophila Spd-2 SP2D (Spd-2 697-998) P817D (D. melanogaster) (UniProt Q9VV79). The description is as above.
Assay [3] has as its target Sumo-tagged Drosophila Spd-2 SP2D (Spd-2 697-998) F822D (D. melanogaster) (UniProt Q9VV79). The description is as above.
The target in assay [4] is Drosophila Spd-2 ASH3 domain (Spd-2 1047-1146) (D. melanogaster) (UniProt Q9VV79). Description: SEC-MALS; untagged protein (His tag cleaved); Superose 12 Increase 10/300 GL, 50 mM tris pH 8.0, 150 mM NaCl, 1 mM DTT; both purified.

B1: Sumo-tagged Drosophila Spd-2 SP2D (Spd-2 697-998), wild type (domain or fragment, UniProt Q9VV79 697-998)
chain: LLPLKVTHTTLCWGSTKLRTDVRKSMQVKNTADKRLVIRLGIQGPGFQLVGTDSSTITLQAMECRSVVINFCPTVCGAAIGALSFYAPPGAHNSNQPGLEIPLYGYGGSASITINGLLKGPVGASFLTIGDVCELSAGPLSANLKFHNKGPLTAFVGISVDSTVLMKLRLSEAFEVRPSRLILPPNSERCVQILFRPNREDLKNILKKTAQVLTLANMRIFCGDEPNRQRMRSLVQRMSSRQREKLTSPMLDSIWGEFPDEQPVRNIGQLNEPPEFILDLVTVVRIIDVALTLNRDFDESSE
Turning to B1, the binding entry in assay [1] was “binds weakly”.

B2: Sumo-tagged Drosophila Spd-2 SP2D (Spd-2 697-998) P817D (domain or fragment, UniProt Q9VV79 697-998)
chain: LLPLKVTHTTLCWGSTKLRTDVRKSMQVKNTADKRLVIRLGIQGPGFQLVGTDSSTITLQAMECRSVVINFCPTVCGAAIGALSFYAPPGAHNSNQPGLEIPLYGYGGSASITINGLLKGDVGASFLTIGDVCELSAGPLSANLKFHNKGPLTAFVGISVDSTVLMKLRLSEAFEVRPSRLILPPNSERCVQILFRPNREDLKNILKKTAQVLTLANMRIFCGDEPNRQRMRSLVQRMSSRQREKLTSPMLDSIWGEFPDEQPVRNIGQLNEPPEFILDLVTVVRIIDVALTLNRDFDESSE
Take B2: the binding entry in assay [2] is “no binding”.

B3: Sumo-tagged Drosophila Spd-2 SP2D (Spd-2 697-998) F822D (domain or fragment, UniProt Q9VV79 697-998)
chain: LLPLKVTHTTLCWGSTKLRTDVRKSMQVKNTADKRLVIRLGIQGPGFQLVGTDSSTITLQAMECRSVVINFCPTVCGAAIGALSFYAPPGAHNSNQPGLEIPLYGYGGSASITINGLLKGPVGASDLTIGDVCELSAGPLSANLKFHNKGPLTAFVGISVDSTVLMKLRLSEAFEVRPSRLILPPNSERCVQILFRPNREDLKNILKKTAQVLTLANMRIFCGDEPNRQRMRSLVQRMSSRQREKLTSPMLDSIWGEFPDEQPVRNIGQLNEPPEFILDLVTVVRIIDVALTLNRDFDESSE
In the case of B3, the binding result in assay [3] is reported as “no binding”.

B4: Drosophila Spd-2 ASH3 domain (Spd-2 1047-1146) (domain or fragment, UniProt Q9VV79 1047-1146)
chain: VEQNWCVQPGLLEFGVGCSPLATLSVTNSFCSRQLIEVTCNVPDLVRISPSECYVSPDGGHAEIDVRLLRSPRQDLLEREPLIVVSMENERISVPISFKF
On to B4, for which the binding entry in assay [4] is listed as “no binding”.
